Values quoted from earlier work in US12329747B2, “Use of lipophilic beta-lactam antibiotics and carboxylate esters for the treatment of bacterial infections within citrus and other plant species” (priority 2019, dated 2025).
Where a name gives a salt, the structure may show the parent alone. For at least one compound, name, drawing or mass did not settle the structure.

System: HLB
Conditions: spraying or common treatment, background statement; cited from earlier work

Structure (SMILES): CN(C)[C@@H]1C(O)=C(C(N)=O)C(=O)[C@@]2(O)C(O)=C3C(=O)c4c(O)cccc4[C@@](C)(O)[C@H]3[C@H](O)[C@@H]12 [oxytetracycline hydrochloride]
- effect on HLB infected trees: only marginally improved the health of trees
